Reference: patent publication US20250281480A1, “PHARMACEUTICAL DRY POWDER INHALATION FORMULATION” (Bayer Aktiengesellschaft, priority 2021, published 2025)
“And” between values parts separate entries of the source, which are not always exact repeats. Equal entries are not always repeated. This continues a long series; more values of the same kind are listed elsewhere.

System: anesthetized PAH minipigs
Test: PAH minipig, intratracheal application of dry powder formulations and of different hydrates (PAP, BP)
Format: in vivo, Göttingen Minipigs
Details: 375 μg/kg i.t.; for BP / PAP: % vs. prevalues, each animal
Procedure: Healthy Göttingen Minipigs® Ellegaard (Ellegaard, Denmark) of both sexes and having a weight of 2-6 kg were used. The animals were sedated by i.m. administration of about 25 mg/kg ketamine and about 10 mg/kg azaperone. Anaesthesia was initiated by i.v. administration of about 2 mg/kg ketamine and about 0.3 mg/kg midazolam. Maintenance of anaesthesia was by i.v. administration of about 7.5-30 mg/kg/h ketamine and about 1-4 mg/kg/h midazolam (rate of infusion 1-4 ml/kg/h) and about 150 μg/kg/h pancuronium bromide (for example Pancuronium-Actavis). After intubation, the animals were ventilated by the ventilator at a constant respiratory volume (10-12 ml/kg, 35 breaths/min; Avea®, Viasys Healthcare, USA, or Engström Carestation, GE Healthcare, Freiburg, Germany) such that an end-tidal CO2 concentration of about 5% was achieved. Ventilation was performed with room air, enriched with about 40% oxygen (normoxia). For the measurement of the haemodynamic parameters such as pulmonary arterial pressure (PAP), blood pressure (BP) and heart rate (HR), catheters were inserted into the carotid artery to measure the blood pressure, and a Swan-Ganz® catheter was introduced in a flow-directed manner via the jugular vein into the pulmonary artery. The haemodynamic signals were recorded and evaluated by means of pressure transducers (Combitransducer, B. Braun, Melsungen, Germany)/amplifiers and Ponemah® as data acquisition software.
About 0.3-0.75 μg/kg/min of 9,11-didesoxy-9α,11α-epoxymethanoprostaglandine F2α (U-44069; Sigma, cat. no. D0400, or Cayman Chemical Company, cat. no. 16440), dissolved in physiological saline, were infused to achieve an increase of the mean pulmonary arterial pressure to values of over 25 mmHg.
After characterization of the effects of comparative example 11 after nebulization of compound solutions, in a further step the effects of crystalline forms of comparative example 11, e.g. sesquihydrate, e.g. example 6e on PAP and BP after inhaled application of different dry powder lactose formulations (table 52) were studied in anesthetized PAH minipigs.
As reference pure Lactose vehicle was applied in the beginning of each experiment.

## O.O=C(O)c1ccc(CCN(CCc2ccccc2OCc2ccc(-c3ccc(C(F)(F)F)cc3)cc2Cl)[C@H]2CCCc3nc(C(=O)O)ccc32)cc1.O=C(O)c1ccc(CCN(CCc2ccccc2OCc2ccc(-c3ccc(C(F)(F)F)cc3)cc2Cl)[C@H]2CCCc3nc(C(=O)O)ccc32)cc1 [Example 6a, (5S)—{[2-(4-Carboxyphenyl)ethyl][2-(2-{[3-chloro-4′-(trifluoromethyl)biphenyl-4-yl]methoxy}phenyl)-ethyl]amino}-5,6,7,8-tetrahydroquinoline-2-carboxylic Acid Semihydrate]
Time −10, per animal
  BP (mean): 99 mmHg and 85 mmHg and 86 mmHg
  PAP(mean): 38.7 mmHg (2×) and 40.6 mmHg
Time 50
  BP: 99.6% and 98.4% and 100.6%
  PAP: 99.3% and 98.7% and 98.9%
Time 70
  BP: 98.4%
  PAP: 96.1% and 97.0%
Time 80
  BP: 102.6% and 99.7% and 101.8%
  PAP: 83.4% and 94.5% and 91.2%
Time 90
  BP: 101.6% and 102.2% and 104.0%
  PAP: 73.4% and 89.2% and 88.7%
Time 100
  BP: 100.6% and 101.0% and 107.4%
  PAP: 69.0% and 85.0% and 84.7%
Time 110
  BP: 99.6% and 99.7% and 111.9%
  PAP: 66.5% and 82.4% and 82.1%
Time 120
  BP: 99.6% and 99.7% and 108.6%
  PAP: 64.4% and 80.8% and 79.7%
Time 130
  BP: 98.6% and 102.2% and 109.7%
  PAP: 62.8% and 79.9% and 76.7%
Time 140
  BP: 99.6% and 103.5% and 110.8%
  PAP: 61.8% and 78.7% and 75.7%
Time 150
  BP: 97.6% and 103.5% and 109.7%
  PAP: 60.9% and 78.0% and 74.3%
Time 160
  BP: 96.6% and 102.2% and 109.7%
  PAP: 59.9% and 77.1% and 73.1%
Time 170
  BP: 95.6% and 99.7% and 107.4%
  PAP: 58.6% and 76.7% and 72.3%
Time 180
  BP: 94.6% and 99.7% and 106.3%
  PAP: 58.0% and 75.4% and 71.8%
Time 190
  BP: 94.6% and 108.5% and 105.2%
  PAP: 59.5% and 78.4% and 70.7%
Time 200
  BP: 92.6% and 107.3% and 104.0%
  PAP: 60.5% and 76.8% and 71.1%
Time 210
  BP: 90.6% and 102.2% and 102.9%
  PAP: 60.6% and 75.5% and 70.8%
Time 220
  BP: 89.6% and 99.7% and 100.6%
  PAP: 60.3% and 75.1% and 70.3%
Time 230
  BP: 87.6% and 98.4% and 100.6%
  PAP: 58.7% and 74.1% and 69.1%
Time 240
  BP: 87.6% and 97.2% and 98.4%
  PAP: 58.9% and 74.2% and 68.0%
Time 250
  BP: 85.5% and 95.9% and 96.1%
  PAP: 59.0% and 72.7% and 67.9%
Time 260
  BP: 85.5% and 95.9% and 95.0%
  PAP: 58.8% and 72.5% and 68.0%
Time 270
  BP: 85.5% and 95.9% and 98.4%
  PAP: 59.6% and 72.4% and 67.3%
Time 280
  BP: 85.5% and 94.6% and 95.0%
  PAP: 59.3% and 72.6% and 67.8%
Time 290
  BP: 84.5% and 94.6% and 93.9%
  PAP: 58.8% and 72.6% and 66.7%
Time 300
  BP: 83.5% and 97.2% and 92.7%
  PAP: 57.9% and 72.2% and 67.1%
